Data as given in PubChem BioAssay AID504791 (Drosophila RNAi Screening Center, 2011).

Purpose: 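Genes whose knock-down strengthens or weakens small-RNA reporter silencing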 (primary screen)
Cells: Drosophila S2-derived reporter cells
Knock-down reagent: long dsRNA against Drosophila genes, about 150-250 ng dsRNA per well (siRNA assay); about 80-120 ng (miRNA assay)
Duration: about 5 days (siRNA assay); about 4 days (miRNA assay)
Conditions: copper sulfate induction of reporters: 25 µM (siRNA assay); 200 mM stated (miRNA assay), 1-2 days before reading
Measurement: 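Dual luciferase assay: Renilla to firefly signal ratio in each well, scaled to the mean ratio of its plate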
Reading the numbers: siRNA reporter hit score: higher = 3 marks a strong hit with raised ratio; -3 a strong hit with lowered ratio
Hit rule: 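a well was a first-pass pick when its plate-scaled ratio rose above 1.5 (siRNA assay) or 1.6 (miRNA assay), or dropped below 0.6; a gene counted only if two separate dsRNAs agreed on retest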
The deposit covers about 23,000 reagents; shown is an unselected part of those that have a named target and a result. In the full data, 199 (0.86%) got an active call. 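Plate-scaled ratios behind the calls are not deposited; printed light signals are raw; many rows marked increased or decreased are still called inactive.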 Entries without a mark were called inactive. Names joined by + are all predicted targets of the reagent.

predicted target	DRSC id	siRNA reporter hit score	stable siRNA reporter change	miRNA reporter change	stable assay Renilla, run 1 (luminescence)	stable assay firefly, run 1 (luminescence)
Gip (GIP-like)	DRSC18667				4452	4.51e5
Fbl6 (F-box and leucine-rich repeat protein 6)	DRSC06335				7191	5.48e5
CG1738	DRSC19772				6078	5.46e5
Nup107 (Nucleoporin 107kD)	DRSC01999				10957	4.07e5
CG12025	DRSC08230				4799	3.14e5
CG7924	DRSC10931				9293	3.28e5
fkh (fork head)	DRSC16949				5747	3.52e5
Taz (Tafazzin)	DRSC07704				6150	4.81e5
Taz (Tafazzin)	DRSC22625				3747	3.61e5
Trs33 (TRAPP subunit 33)	DRSC15990				7854	3.21e5
APP-BP1 (beta-Amyloid precursor protein binding protein 1)	DRSC10920				6064	3.53e5
meru	DRSC09400				5756	3.92e5
meru	DRSC09899				7255	3.49e5
meru	DRSC10215				8102	3.36e5
Rab21	DRSC20968				7030	4.41e5
Hr78 (Hormone-receptor-like in 78)	DRSC11866				9398	4.10e5
TER94 (Transitional endoplasmic reticulum 94)	DRSC07560				5042	2.70e5
CG34282	DRSC16298				7808	4.39e5
CG12643	DRSC17849				5211	5.01e5
Sp212 (Serine-peptidase 212)	DRSC22930				4743	3.98e5
CG8750	DRSC11037				6539	3.98e5
Send2 (Spermathecal endopeptidase 2)	DRSC01906				7528	4.18e5
Rpn13R (Regulatory particle non-ATPase 13-related)	DRSC18404				6402	3.10e5
mspo (M-spondin)	DRSC07652				5587	3.01e5
CG13738	DRSC10065			reporter ratio lowered past the hit cutoff	9484	5.27e5
MYPT-75D (Myosin phosphatase targeting subunit 75D)	DRSC10743				9326	3.06e5
CG34012	DRSC09089				5938	3.73e5
zetaCOP (Coat Protein (coatomer) zeta)	DRSC11412				5955	2.17e5
CG31697	DRSC22273				9722	6.77e5
CG5910	DRSC11786				7356	4.47e5
CG11786	DRSC14389				7491	3.23e5
CG6753	DRSC16108				6231	4.05e5
CG3679	DRSC19346				7826	5.93e5
CAH16 (Carbonic anhydrase 16)	DRSC15371				7627	4.28e5
Dna2 (DNA replication helicase/nuclease 2)	DRSC18254				6671	3.66e5
Golgin104 (Golgin 104)	DRSC10459				8747	3.44e5
Uck (Uridine-cytidine kinase)	DRSC13661				5978	5.76e5
Uck (Uridine-cytidine kinase)	DRSC16028				6487	3.99e5
rut (rutabaga)	DRSC20367	3			4159	2.88e5
rut (rutabaga)	DRSC22976				5454	3.94e5
LSm1 (Like Sm 1)	DRSC04458				6570	5.64e5
CG12895	DRSC06210				6675	3.83e5
Hcs (Holocarboxylase synthetase)	DRSC12070				6510	4.77e5
Hcs (Holocarboxylase synthetase)	DRSC12256				6898	3.10e5
Nup43 (Nucleoporin 43kD)	DRSC16279				10219	4.54e5
CG32706 + CG6999	DRSC18412				5900	4.96e5
scra (scraps)	DRSC07679				8911	4.33e5
Def (Defensin)	DRSC07398				6931	3.77e5
Orct (Organic cation transporter)	DRSC16777				8878	3.43e5
Vps13B (Vacuolar protein sorting 13B)	DRSC15060				5728	3.55e5
DEF8 (differentially expressed in FDCP 8 homolog)	DRSC09840				7223	3.54e5
CG11342	DRSC08175				5774	3.97e5
Spn42Da (Serpin 42Da)	DRSC05025				7314	4.29e5
CG32371	DRSC22209				8958	5.76e5

In a second layout: results already given.
{"predicted target": "CG34012", "DRSC id": "DRSC09089", "stable assay Renilla, run 1 (luminescence)": 5938, "stable assay firefly, run 1 (luminescence)": 3.73e5}
{"predicted target": "zetaCOP (Coat Protein (coatomer) zeta)", "DRSC id": "DRSC11412", "stable assay Renilla, run 1 (luminescence)": 5955, "stable assay firefly, run 1 (luminescence)": 2.17e5}
{"predicted target": "CG31697", "DRSC id": "DRSC22273", "stable assay Renilla, run 1 (luminescence)": 9722, "stable assay firefly, run 1 (luminescence)": 6.77e5}
{"predicted target": "CG5910", "DRSC id": "DRSC11786", "stable assay Renilla, run 1 (luminescence)": 7356, "stable assay firefly, run 1 (luminescence)": 4.47e5}
{"predicted target": "CG11786", "DRSC id": "DRSC14389", "stable assay Renilla, run 1 (luminescence)": 7491, "stable assay firefly, run 1 (luminescence)": 3.23e5}
{"predicted target": "CG6753", "DRSC id": "DRSC16108", "stable assay Renilla, run 1 (luminescence)": 6231, "stable assay firefly, run 1 (luminescence)": 4.05e5}
{"predicted target": "CG3679", "DRSC id": "DRSC19346", "stable assay Renilla, run 1 (luminescence)": 7826, "stable assay firefly, run 1 (luminescence)": 5.93e5}
{"predicted target": "CAH16 (Carbonic anhydrase 16)", "DRSC id": "DRSC15371", "stable assay Renilla, run 1 (luminescence)": 7627, "stable assay firefly, run 1 (luminescence)": 4.28e5}
{"predicted target": "Dna2 (DNA replication helicase/nuclease 2)", "DRSC id": "DRSC18254", "stable assay Renilla, run 1 (luminescence)": 6671, "stable assay firefly, run 1 (luminescence)": 3.66e5}

Next records follow:
predicted target	DRSC id	siRNA reporter hit score	stable siRNA reporter change	miRNA reporter change	stable assay Renilla, run 1 (luminescence)	stable assay firefly, run 1 (luminescence)
t (tan)	DRSC17815				5355	3.56e5
CG9095	DRSC20150				4143	3.42e5
CG9284 (retired record)	DRSC03899				5699	4.84e5
CG9284 (retired record)	DRSC04536				1.88e5	2.68e5
CG9691	DRSC18441				5539	3.20e5
Mtp (Microsomal triacylglycerol transfer protein)	DRSC03216				11621	4.50e5
Sdhaf3 (Succinate dehydrogenase assembly factor 3)	DRSC15020				7176	4.78e5
Obp28a (Odorant-binding protein 28a)	DRSC03394				8158	5.51e5
CG32772	DRSC18052				2828	2.02e5
CG32772	DRSC18406				7390	4.89e5
CG32772	DRSC22349				8442	6.25e5
CG6931	DRSC10750				7346	3.30e5
CG17562	DRSC15243				7047	4.29e5
Hmx (H6-like-homeobox)	DRSC15884				8158	4.39e5
Hmx (H6-like-homeobox)	DRSC16706				8173	4.39e5
Hmx (H6-like-homeobox)	DRSC22799				4551	4.00e5
CG4338	DRSC15564				7702	4.57e5
Cyp6a15Psi (pseudo)	DRSC07377		reporter ratio raised past the hit cutoff		7323	2.62e5
CG7133	DRSC11798				7832	2.95e5
Exo84 (Exocyst 84)	DRSC15965				6592	3.43e5
CG13228	DRSC06348				6122	5.23e5
Dus1 (Dihydrouridine synthase 1)	DRSC00623				7234	4.36e5
ImpE3 (Ecdysone-inducible gene E3)	DRSC16716				5852	3.50e5
Vm26Ab (Vitelline membrane 26Ab)	DRSC03473		reporter ratio lowered past the hit cutoff		4032	4.06e5
eRF1 (eukaryotic translation release factor 1)	DRSC11779				7515	3.81e5
Sf3b6 (Splicing factor 3b subunit 6)	DRSC09972				8399	5.56e5
stx (stuxnet)	DRSC18442				3971	2.60e5
stx (stuxnet)	DRSC18443				4388	2.97e5
stx (stuxnet)	DRSC23075				7172	4.65e5
